Out of some 580,000 compounds screened, about 6,100 (1.1%) were called active. Inconclusive results, whose numbers are uncertain, are shown with a selection of clear calls. Calls come from the whole dose curve; as a rule, active = well fitted inhibition curve with a large enough effect; inconclusive = small, poorly fitted or top-dose-only effect, or another doubt; inactive = no such curve, though single readings can be large or run the other way. Where the call is inconclusive, the potency comes from a doubtful curve fit.
target: Polyunsaturated fatty acid lipoxygenase ALOX12 (Homo sapiens) (UniProt P18054); experiment: Primary qHTS assay for inhibitors of human arachidonate 12S-lipoxygenase (ALOX12): Round 2; conditions: purified 12hLO, xylenol orange hydroperoxide absorbance; series mostly up to 108 µM
Procedure, shortened: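 Hydroperoxide product was detected by ferrous iron/xylenol orange as the 573 to 405 nm absorbance ratio. Arachidonic acid at 40 uM (final) was turned over for 30 min at room temperature by 150 nM human 12hLO, pH 7.0 Hepes buffer, after 15 min compound preincubation.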
Potency is the fitted concentration of half-maximal effect.

Chains of the proteins cited; added tags and fusions are not shown. Lines headed by an entry give the natural chain unless they say otherwise; changes in a name come on top.
UniProt P18054: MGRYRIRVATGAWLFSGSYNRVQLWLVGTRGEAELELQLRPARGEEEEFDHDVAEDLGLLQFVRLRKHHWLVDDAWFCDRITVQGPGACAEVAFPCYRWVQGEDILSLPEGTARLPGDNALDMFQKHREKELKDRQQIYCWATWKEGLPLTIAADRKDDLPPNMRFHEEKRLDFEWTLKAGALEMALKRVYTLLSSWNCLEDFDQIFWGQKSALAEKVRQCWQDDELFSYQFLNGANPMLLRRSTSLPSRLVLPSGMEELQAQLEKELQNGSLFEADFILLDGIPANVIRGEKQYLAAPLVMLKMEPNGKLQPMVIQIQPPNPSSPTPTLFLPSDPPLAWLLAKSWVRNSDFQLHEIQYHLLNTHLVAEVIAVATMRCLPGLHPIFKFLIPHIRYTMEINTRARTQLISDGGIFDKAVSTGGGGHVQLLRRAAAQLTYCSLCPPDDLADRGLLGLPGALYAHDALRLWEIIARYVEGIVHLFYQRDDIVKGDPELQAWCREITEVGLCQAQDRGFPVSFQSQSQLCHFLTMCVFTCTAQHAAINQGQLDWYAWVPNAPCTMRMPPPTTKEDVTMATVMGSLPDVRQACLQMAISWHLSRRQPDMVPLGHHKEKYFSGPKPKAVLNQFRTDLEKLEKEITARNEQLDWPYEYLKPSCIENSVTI

Compound	Potency
CNCc1ccc(-c2cc(Cl)cc(Cl)c2)o1	inconclusive: 50.1 µM [inhibitor, partial curve, poor fit]
O=[N+]([O-])c1cc(-c2nnc(-c3ccccc3)o2)ccc1Oc1ccc(Cl)cc1	inactive
C=C[C@](C)(O)CC[C@@H]1[C@@]2(C)CCCC(C)(C)[C@@H]2CC[C@@]1(C)O	inconclusive: 224 µM [inhibitor, partial curve, poor fit]
Cc1ccc(C(=O)c2c3ccccc3[n+]([O-])n2CCC(=O)O)cc1	inconclusive: 50.1 µM [inhibitor, partial curve, poor fit]
CCCCOP(=O)(OCCCC)C1(NS(=O)(=O)c2ccccc2)C=CC(=O)c2ccccc21 (stereo not drawn)	active: 15.8 µM
O=C(NCC(=O)N(c1cccnc1)C(C(=O)NC1CCCCC1)c1ccccc1F)c1ccco1 (stereo not drawn)	inactive
Cc1ccc(CN2CCCN(c3cccc(C(=O)N4CCc5ccccc54)c3)C2=O)cc1	inconclusive: 100 µM [inhibitor, partial curve, poor fit]
CCc1cccc2c(C(CC(=O)NCCc3ccccc3)c3cccc4c3OCO4)c[nH]c12 (stereo not drawn)	inconclusive: 10 µM [inhibitor, full curve]
C/C(=N/NC(=O)c1ccco1)c1ccc(NC(=O)c2ccc(Br)o2)cc1	inconclusive: 2.51 µM [inhibitor, full curve, poor fit]
Cn1c(-c2cccc([N+](=O)[O-])c2)cnc1NCc1ccc(C#N)cc1	inconclusive: 17.8 µM [inhibitor, partial curve, poor fit]
O=C1CCCN1c1cccc(-c2csc(-c3ccsc3)n2)c1	inconclusive: 35.5 µM [inhibitor, partial curve, poor fit]
NC(=O)C1CCN(C(=O)CSc2nc(O)cc(=O)[nH]2)CC1	inactive
CCOC(=O)c1ccc(NC2=CC(=O)C(=O)c3ccccc32)cc1	inconclusive: 50.1 µM [inhibitor, partial curve, poor fit]
CSc1cc(-c2ccccc2)[nH]c(=O)c1C#N	inactive
O=C(O)c1cc(I)cc(I)c1	inconclusive: 28.2 µM [inhibitor, full curve, poor fit]
O=C(CNC(=O)C1CCCCC1)Nc1cc(Cl)ccc1Cl	inconclusive: 56.2 µM [inhibitor, partial curve, poor fit]
O=C(CCSc1nnc2scc(-c3ccccc3)n12)Nc1nc(-c2ccccc2)ns1	inconclusive: 112 µM [inhibitor, single point]
COc1ccc(-n2cccc2/C=C/[N+](=O)[O-])cc1	inconclusive: 39.8 µM [inhibitor, partial curve]

Copied from the list:
Entry of O=C(CCSc1nnc2scc(-c3ccccc3)n12)Nc1nc(-c2ccccc2)ns1 under Potency: inconclusive: 112 µM [inhibitor, single point]
Entry of Cn1c(-c2cccc([N+](=O)[O-])c2)cnc1NCc1ccc(C#N)cc1 under Potency: inconclusive: 17.8 µM [inhibitor, partial curve, poor fit]

From PubChem BioAssay AID1671190 (National Center for Advancing Translational Sciences (NCATS), 2021)
